# Assay results reported in paper doi:10.1101/162677.
# No constants are given. Whether binding was seen depends on the method and setting. Binding seen in cells or lysates may run through a third protein. Some entries that bind do so weakly or less than the wild type. Tags and fused reporters may be left off the sequences shown.
# B1: Pku70-HA (protein, UniProt O94395 1-607)
# chain: MENDEQIDETENFAIGKYAILFVIEVSPSMLDPVDEFTPSSLQMALICAYQLAAQRVITNPSDIMGVLLYGTESSTGRFANQMMLLDIDPPDAERIKSLQSFEKDFQFSKEKFKPCSCQVSLSSVLYHCSVIFTTKAENFEKRLFLITDNDHPAWDATERDIILQRAKDLRDLDIQVHPVFLDPPTHSFRINIFYSDFLYIVYGRQDVSNLVNRGQAQLQHMLNMITALQKPKRAHFHLKMDLGNDVRIGVEAFILLKRLESAKTNWVYAKGERFAVAVPQSKQVSFATKKELKKDEIRRSYSYGGSSVVFGSDELNKVRSFEPPTLRIIGFRDFSTLKPWHCLKPAVFLRPKDDEIIGSGAVFSAIHKKLLASNKIGIAWFVSRPNANPCFVAMLATPGSIHIRDDFELPLGIFLVQLPTADDIRSLPPINPNPISMPSNLIETMQRILRGMELRSYQPGKYNNPSLQWHYKVLQALALDEEIPTDFVDNTLPKYKAIQKRVGEYMGDVNNIVAEYRNDISDKNGIKEEEEDQGPIVKKARIEKSGKPIFAEDDRLKQLYIEGVLDKEIKALKVSQLKDILRDRGLRVSGKKADLLDNLTNYVKKL
# Key:
# [1] = target: T1, Rad11-YFP (Schizosaccharomyces pombe) (UniProt Q92372); assay: co-IP
# T1 sequence: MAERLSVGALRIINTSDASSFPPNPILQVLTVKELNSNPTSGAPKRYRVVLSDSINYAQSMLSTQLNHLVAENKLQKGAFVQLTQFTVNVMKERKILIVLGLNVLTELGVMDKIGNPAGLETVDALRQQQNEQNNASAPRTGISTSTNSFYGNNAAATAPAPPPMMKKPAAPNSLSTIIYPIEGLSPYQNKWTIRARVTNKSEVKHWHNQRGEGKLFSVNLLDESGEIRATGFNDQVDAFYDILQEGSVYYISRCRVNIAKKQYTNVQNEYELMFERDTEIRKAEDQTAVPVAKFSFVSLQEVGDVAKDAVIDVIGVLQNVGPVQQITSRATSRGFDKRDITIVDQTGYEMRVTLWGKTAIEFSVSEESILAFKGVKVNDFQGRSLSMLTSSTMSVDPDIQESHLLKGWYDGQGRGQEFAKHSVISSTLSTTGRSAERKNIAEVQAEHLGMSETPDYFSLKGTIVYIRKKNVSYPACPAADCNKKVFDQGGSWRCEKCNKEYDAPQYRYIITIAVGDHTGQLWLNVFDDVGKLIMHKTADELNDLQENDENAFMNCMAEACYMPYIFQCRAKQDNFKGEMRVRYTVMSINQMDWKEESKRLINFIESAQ
# [2] = target: T2, Ssb3-YFP (Schizosaccharomyces pombe) (UniProt Q92374); assay: co-IP
# T2 sequence: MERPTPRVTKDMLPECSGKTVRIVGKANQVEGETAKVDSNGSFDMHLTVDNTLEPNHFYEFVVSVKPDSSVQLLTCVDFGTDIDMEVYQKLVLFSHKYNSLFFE
binder,measurement,setting,value
B1,binding,[1],binds
same,binding,[2],binds
